# Measurements from the supplement of paper PMC10689618.
# Structures can show the parent of a compound that is named as a salt. Some of the results follow. Single values are uncertain, as repeats are few or missing.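 Labelled rat cortical synaptosomes were engulfed by primary human fetal astrocytes. Engulfment equaled a red/green ratio, corrected for calcein live-cell signal and normalized to the plate median. Compounds were toxic when calcein dropped over 30%, and reduced phagocytosis when below 70% of the median above 5 µM.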
# Assays:
# Settings in all cases: 24 h
# Human fetal astrocytes [1] = assay: loss of total cells relative to no-compound high-control median (toxicity); higher = more toxic (fewer cells)
# Human fetal astrocytes [2] = assay: as above; remark: listed apart in the source
# Human fetal astrocytes [3] = assay: synaptosome phagocytosis (pHrodo/calcein intensity ratio) relative to plate median of data wells; higher = more phagocytosis
# Human fetal astrocytes [4] = assay: as above; remark: listed apart in the source
Structure (SMILES),loss of total cells (Human fetal astrocytes [1]; 1.39 µM),loss of total cells (Human fetal astrocytes [1]; 2.78 µM),loss of total cells (Human fetal astrocytes [1]; 5.56 µM),loss of total cells (Human fetal astrocytes [1]; 11.11 µM),loss of total cells (Human fetal astrocytes [1]; 22.22 µM),loss of total cells (Human fetal astrocytes [2]; 1.39 µM),loss of total cells (Human fetal astrocytes [2]; 2.78 µM),loss of total cells (Human fetal astrocytes [2]; 5.56 µM),loss of total cells (Human fetal astrocytes [2]; 11.11 µM),loss of total cells (Human fetal astrocytes [2]; 22.22 µM),synaptosome phagocytosis (Human fetal astrocytes [3]; 1.39 µM),synaptosome phagocytosis (Human fetal astrocytes [3]; 2.78 µM),synaptosome phagocytosis (Human fetal astrocytes [3]; 5.56 µM),synaptosome phagocytosis (Human fetal astrocytes [3]; 11.11 µM),synaptosome phagocytosis (Human fetal astrocytes [3]; 22.22 µM),synaptosome phagocytosis (Human fetal astrocytes [4]; 1.39 µM),synaptosome phagocytosis (Human fetal astrocytes [4]; 2.78 µM),synaptosome phagocytosis (Human fetal astrocytes [4]; 5.56 µM),synaptosome phagocytosis (Human fetal astrocytes [4]; 11.11 µM),synaptosome phagocytosis (Human fetal astrocytes [4]; 22.22 µM)
NNCCc1ccccc1 [Phenelzine sulfate],1.6%,-0.9%,-3.9%,4.2%,7.4%,17.4%,-11.3%,12.3%,-23.4%,10.2%,120%,108%,94.3%,124%,96.5%,128%,97%,111%,86.7%,95.7%
CC1=C(C(=O)O)N2C(=O)[C@@H](NC(=O)[C@H](N)c3ccccc3)[C@H]2SC1 [Cephalexin hydrate],-13.2%,-19.8%,-22.6%,-26.5%,-10.9%,-16.6%,-19.2%,8.7%,-11.7%,13.6%,98.5%,96.2%,106%,113%,106%,99.6%,87.8%,138%,88.1%,90.3%
NC(Cc1ccc(Cl)cc1)C(=O)O (racemic) [(±)-p-Chlorophenylalanine],-21.3%,-18.9%,-7.8%,-20.2%,-20.7%,4.1%,-7.6%,19.8%,18.9%,26.7%,139%,82.8%,113%,120%,136%,106%,85.8%,104%,111%,92.8%
O=c1[nH]cc(F)c(=O)[nH]1 [5-Fluorouracil],5.4%,5.1%,-18.1%,-5.8%,0.8%,-3.3%,-9.8%,-6.3%,4.9%,48.9%,102%,118%,110%,130%,125%,92.1%,138%,95.3%,136%,114%
O=C(c1ccccc1)c1ccc2n1CCC2C(=O)O (stereo not given) [Ketorolac tris salt],-17.5%,-0.5%,6.1%,24.8%,8.4%,-29%,12.7%,1.9%,29.8%,7.8%,106%,131%,111%,141%,87.8%,84.6%,89.2%,119%,119%,87.2%
O=C(CCc1ccc(O)cc1)c1c(O)cc(O)cc1O [Phloretin],-19.6%,-19.5%,7.3%,-1.1%,-14.8%,-25.4%,10.5%,-19%,8.1%,11.1%,94.5%,95.9%,99%,110%,99.2%,118%,109%,112%,90.6%,83.3%
C[C@](N)(Cc1ccc(O)c(O)c1)C(=O)O [L-alpha-Methyl DOPA],-26.1%,-6.8%,-5.2%,12.4%,4.7%,-19.1%,5.2%,1.5%,-11.7%,11.3%,108%,85%,88.8%,64.4%,97.6%,81.7%,118%,94.6%,110%,106%
Cc1c(OCC(F)(F)F)ccnc1C[S+]([O-])c1nc2ccccc2[nH]1 (stereo not given) [Lansoprazole],-13.7%,0.5%,8%,18.1%,3.7%,-50.8%,17.5%,3.7%,50.8%,10.9%,75.9%,124%,78.5%,113%,110%,128%,78.3%,93.4%,121%,76.6%
CNC(=C[N+](=O)[O-])NCCSCc1ccc(CN(C)C)o1 [Ranitidine hydrochloride],-7.1%,-21.3%,-11.8%,-12.6%,0.8%,-21.6%,-9.5%,9.3%,7.8%,5.7%,84.1%,100%,105%,80.1%,102%,101%,98.5%,90.3%,126%,90.3%
C[C@H]1C[C@H]2[C@@H]3CCC4=CC(=O)C=C[C@]4(C)[C@@]3(F)[C@@H](O)C[C@]2(C)[C@@]1(O)C(=O)CO [Betamethasone],-15%,-22.6%,-4.1%,-22.9%,-16.9%,-9.1%,-5.8%,1.5%,-25%,-5.7%,66.6%,101%,112%,99%,118%,217%,112%,119%,103%,91%
CN(C)CCN(Cc1cccs1)c1ccccn1 [Methapyrilene hydrochloride],-22.3%,4.1%,-13.6%,3.8%,8.4%,-16.9%,38.9%,-0.6%,55.4%,18.4%,66.3%,122%,57%,97.5%,90.8%,109%,114%,92.4%,80.3%,157%
Nc1nc2c(ncn2COCCO)c(=O)[nH]1 [Acyclovir],-12.5%,-19.5%,-31.8%,-8.5%,-7.9%,-23.4%,-28.6%,1.2%,29.8%,10.3%,109%,113%,125%,118%,118%,91.8%,112%,104%,90%,120%
CNC[C@H](O)c1cccc(O)c1 [Phenylephrine hydrochloride],-19.4%,4.1%,-9.9%,-2.9%,16.8%,-8.6%,-2.4%,-19.5%,-4.9%,28.9%,94.2%,136%,134%,93.6%,111%,68.7%,61.4%,81.6%,85.1%,114%
CCCNCC(O)COc1ccccc1C(=O)CCc1ccccc1 (stereo not given) [Propafenone hydrochloride],-18.5%,8.6%,3.3%,-6.7%,25.2%,-44%,-35.7%,-4.5%,-23.4%,17.6%,94.3%,90%,85%,112%,84.6%,87.5%,95.9%,93.6%,86.2%,77.4%
CN1C(=O)CC[C@H]1c1cccnc1 [(-)-Cotinine],-23.1%,-12.9%,-28.1%,-20.2%,-7.1%,6.2%,-22%,-7.7%,2%,-7%,113%,111%,116%,108%,121%,124%,81.4%,92.4%,115%,83%
NC(=O)NO [Hydroxyurea],0.4%,12%,-3.3%,6.7%,3.2%,21.1%,-7.1%,1.4%,11.8%,-16.7%,95.5%,131%,122%,114%,130%,92.5%,126%,113%,123%,120%
CN(C)C(=O)C(CCN1CCC(O)(c2ccc(Cl)cc2)CC1)(c1ccccc1)c1ccccc1 [Loperamide hydrochloride],-23.2%,-0.5%,0.5%,0%,15.9%,-38.2%,-14.3%,0.9%,-34.4%,-0.6%,65.1%,66.8%,89.3%,96.6%,30.4%,75.7%,75.3%,69.4%,69.9%,71.2%
CCCCC1C(=O)N(c2ccccc2)N(c2ccccc2)C1=O [Phenylbutazone],-11.5%,-0.3%,0.6%,1.9%,7.4%,-15.8%,-19.8%,-18.3%,-35.2%,-13.6%,89.1%,79.7%,87.2%,117%,131%,99.3%,115%,101%,113%,120%
O=C(c1ccc(OCCN2CCCCC2)cc1)c1c(-c2ccc(O)cc2)sc2cc(O)ccc12 [Raloxifene hydrochloride],-10.9%,-6.3%,21.9%,8.8%,24.7%,-27.4%,-17.5%,-3.7%,27.2%,0.3%,77.9%,83.6%,66.9%,75.4%,29.1%,87.7%,78.6%,90.6%,46.9%,38.6%
COCCOC(=O)C1=C(C)NC(C)=C(C(=O)OC(C)C)C1c1cccc([N+](=O)[O-])c1 (stereo not given) [Nimodipine],-11.8%,12.2%,9.9%,5.7%,21.5%,-29%,-33.3%,-8.1%,18.7%,-1.6%,108%,84.7%,106%,98.1%,98.6%,110%,125%,104%,83.8%,95.1%
CC(C)NC[C@H](O)COc1cccc2ccccc12 [(S)-Propranolol hydrochloride],14.6%,-13.5%,-10.7%,-9.6%,-8.2%,-11%,-32.2%,-30%,-0.3%,25.2%,104%,82.8%,91.9%,61.3%,88.6%,118%,89.1%,91.1%,106%,88.9%
c1ccc2c(c1)CCCC2C1=NCCN1 (stereo not given) [Tetrahydrozoline hydrochloride],-15.8%,-31.4%,-2.2%,-5%,-14.8%,-20.5%,-9.8%,-4.2%,-4.3%,-3.3%,72%,76.6%,73.7%,110%,94.1%,83.6%,120%,89.4%,116%,110%
Nc1nnc(-c2cccc(Cl)c2Cl)c(N)n1 [Lamotrigine],-7.1%,-11.3%,-14.6%,1%,19.6%,-45.2%,-42.1%,-11.2%,8.2%,0.9%,118%,96.3%,114%,88.3%,99%,123%,100%,106%,118%,99.7%

# Gathered by group: those above with fluorine
Structure (SMILES),loss of total cells (Human fetal astrocytes [1]; 1.39 µM),loss of total cells (Human fetal astrocytes [1]; 2.78 µM),loss of total cells (Human fetal astrocytes [1]; 5.56 µM),loss of total cells (Human fetal astrocytes [1]; 11.11 µM),loss of total cells (Human fetal astrocytes [1]; 22.22 µM),loss of total cells (Human fetal astrocytes [2]; 1.39 µM),loss of total cells (Human fetal astrocytes [2]; 2.78 µM),loss of total cells (Human fetal astrocytes [2]; 5.56 µM),loss of total cells (Human fetal astrocytes [2]; 11.11 µM),loss of total cells (Human fetal astrocytes [2]; 22.22 µM),synaptosome phagocytosis (Human fetal astrocytes [3]; 1.39 µM),synaptosome phagocytosis (Human fetal astrocytes [3]; 2.78 µM),synaptosome phagocytosis (Human fetal astrocytes [3]; 5.56 µM),synaptosome phagocytosis (Human fetal astrocytes [3]; 11.11 µM),synaptosome phagocytosis (Human fetal astrocytes [3]; 22.22 µM),synaptosome phagocytosis (Human fetal astrocytes [4]; 1.39 µM),synaptosome phagocytosis (Human fetal astrocytes [4]; 2.78 µM),synaptosome phagocytosis (Human fetal astrocytes [4]; 5.56 µM),synaptosome phagocytosis (Human fetal astrocytes [4]; 11.11 µM),synaptosome phagocytosis (Human fetal astrocytes [4]; 22.22 µM)
O=c1[nH]cc(F)c(=O)[nH]1 [5-Fluorouracil],5.4%,5.1%,-18.1%,-5.8%,0.8%,-3.3%,-9.8%,-6.3%,4.9%,48.9%,102%,118%,110%,130%,125%,92.1%,138%,95.3%,136%,114%
Cc1c(OCC(F)(F)F)ccnc1C[S+]([O-])c1nc2ccccc2[nH]1 (stereo not given) [Lansoprazole],-13.7%,0.5%,8%,18.1%,3.7%,-50.8%,17.5%,3.7%,50.8%,10.9%,75.9%,124%,78.5%,113%,110%,128%,78.3%,93.4%,121%,76.6%
C[C@H]1C[C@H]2[C@@H]3CCC4=CC(=O)C=C[C@]4(C)[C@@]3(F)[C@@H](O)C[C@]2(C)[C@@]1(O)C(=O)CO [Betamethasone],-15%,-22.6%,-4.1%,-22.9%,-16.9%,-9.1%,-5.8%,1.5%,-25%,-5.7%,66.6%,101%,112%,99%,118%,217%,112%,119%,103%,91%
